# Results as given in patent US20230048553A1 (AbbVie / Abbott, published 2023).
# Sequences of proteins named here, by UniProt entry; tags and fusion partners are left off. A change or cut given only in a name is not applied to a line headed by its entry. A line that says so, or that is headed by a name, gives the form on record, which may keep a tag or linker.
# cynomolgus CCR8 (G7NYJ2, form named): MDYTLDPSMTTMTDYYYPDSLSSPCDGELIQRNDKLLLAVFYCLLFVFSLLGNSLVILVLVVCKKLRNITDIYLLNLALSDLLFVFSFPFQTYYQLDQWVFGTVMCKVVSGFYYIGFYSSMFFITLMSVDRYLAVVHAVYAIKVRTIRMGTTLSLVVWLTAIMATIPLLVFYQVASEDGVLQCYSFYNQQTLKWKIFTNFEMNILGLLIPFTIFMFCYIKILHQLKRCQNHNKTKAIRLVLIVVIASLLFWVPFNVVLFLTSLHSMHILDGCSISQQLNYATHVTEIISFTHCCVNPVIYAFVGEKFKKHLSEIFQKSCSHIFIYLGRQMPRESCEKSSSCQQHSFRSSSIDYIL
# These are yes or no findings as the source states them, for the method shown. Some binding calls cover weakened binding; strength is not graded here.
# Legend:
# cynomolgus CCR8 [1] = biological target: T1, cynomolgus CCR8 (cynomolgus monkey, UniProt G7NYJ2 1-355); assay: flow cytometry, Jurkat cells overexpressing CCR8
# cynomolgus CCR8 [2] = biological target: T1, cynomolgus CCR8; assay: flow cytometry on cyno CCR8 Jurkat cells
# cynomolgus CCR8 [3] = biological target: T1, cynomolgus CCR8; assay: flow cytometry on cyCCR8 Jurkat cells
# Description: The candidate molecules were assessed for binding capacity using flow cytometry through known methods against overexpressed huCCR8 or cyCCR8 on the surface of Jurkat cells. The exemplary antibodies were tested for their ability to self-interact, bind to huCCR8 and cyCCR8, capacity for ADCC using the reporter bioassay, and non-specific binding to HEK293 cells. […] The AC-SINS self-interaction scores for each candidate was <1. At 100 μg/mL, non-specific binding maximums ranged from 97 to 144 GMFI. At 10 μg/mL, non-specific binding maximums ranged from 94-111 GFMI. At 1 μg/mL, non-specific binding maximums ranged from 87-102 GMFI.
binding (cynomolgus CCR8 [3]),Binder,binding (cynomolgus CCR8 [1]),binding (cynomolgus CCR8 [2])
,"ABBV-514 (antibody, human IgG1, kappa, V domains shown, afucosylated N-glycan at ASN-300 (EU: ASN-297), Afucosylated humanized IgG1 kappa made in cells expressing Pseudomonas RMD) VH: EVQLVESGGGLVQPGGSLKLSCAASGFIFSNAVMYWVRQASGKGLEWVARIKTKFNNYATYYADAVKGRFTISRDDSKNMVYLQMNSLKTEDTAVYYCTAGDRNKPFAYWGQGTLVTVSS VL: ETVVTQSPATLSLSPGERATLSCRASTSVITLLHWFQQKPGQAPRLLIHGASNLESRVPARFSGSGSGTDFTLTISSLEPEDFATYFCQQSWNDPYTFGQGTKLEIKR",binds,binds
binds,"AC-277357 (fucosylated) (antibody, human IgG1, kappa, V domains shown, AC-264700 with LCDR1 D27→T. Human IgG1 kappa) VH: EVQLVESGGGLVQPGGSLKLSCAASGFIFSNAVMYWVRQASGKGLEWVARIKTKFNNYATYYADAVKGRFTISRDDSKNMVYLQMNSLKTEDTAVYYCTAGDRNKPFAYWGQGTLVTVSS VL: ETVVTQSPATLSLSPGERATLSCRASTSVITLLHWFQQKPGQAPRLLIHGASNLESRVPARFSGSGSGTDFTLTISSLEPEDFATYFCQQSWNDPYTFGQGTKLEIKR",,
